Assay results as given in US20220298135A1, “5-HETEROARYL-PYRIDIN-2-AMINE COMPOUNDS AS NEUROPEPTIDE FF RECEPTOR ANTAGONISTS” (Domain Therapeutics, priority 2019, published 2022).
At least one structure is not confirmed: it was looked up by name or label, or the drawing left a doubt.

System: morphine-induced hyperalgesia
Assay: Morphine-induced hyperalgesia model in the mouse (tail immersion test)
Type: in vivo
Conditions: 10 mg/kg s.c.; morphine 10 mg/kg s.c. daily during 8 days; male C57/B16N mice; tail immersion test 47° C.
Method: This method, which detects opioid-induced hyperalgesia, follows those well-known by one skilled in the art and described in the literature (Elhabazi K et al., J Vis Exp. 2014; (89):e51264). The procedure applied to the compounds of the invention is as follows:
Nociceptive thresholds are assessed using the tail immersion test (TIT). After TIT, mice are treated daily during 8 consecutive days with morphine (10 mg/kg, sub-cutaneous s.c.) +/− tested compounds (10 mg/kg, s.c.) 20 min before morphine injection for example 31 and 32 and twice a day for examples 56 and 143 (20 min before morphine injection, and in the afternoon).
Mice used were male C57/B16N 8 weeks old at the beginning of the experiment. During TIT the tail of the animal is immersed two-thirds in a water bath at 47° C. and the withdrawal latency is recorded in seconds. The cutoff is 25 seconds, to avoid tissue damage. After TIT mice received an injection depending on their group then are replaced to their home cages.
FIGS. 1A and 1B show the mean time of tail withdrawal latency in each group of animals. The anti-hyperalgesia effect of the tested compounds was compared to vehicle-treated group using ANOVA test followed by the Bonferroni's test.

## Cl.Nc1ccc(-c2cccc3cccnc23)c(N)n1 [Example 31, 3-(8-quinolyl)pyridine-2,6-diamine]
  blockade of morphine-induced hyperalgesia (tail withdrawal latency): significant blockade of morphine-induced hyperalgesia

## Cl.Nc1ccc(-c2cccc3ccncc23)c(N)n1 [Example 32, 3-Isoquinolin-8-yl-pyridine-2,6-diamine]
  blockade of morphine-induced hyperalgesia (tail withdrawal latency): significant blockade of morphine-induced hyperalgesia
